Reference: publication PMC12092789
These are yes or no findings as the source states them, for the method shown. In cells and extracts the contact can be indirect. Some binding calls cover weakened binding; strength is not graded here. For some assays here: Sequences can lack the tags named with a protein.

By UniProt entry, the sequences of proteins in these tests, tags left out. Where a name states a change or a piece, a line headed by the entry shows the natural chain unless it says otherwise.
UniProt P06748: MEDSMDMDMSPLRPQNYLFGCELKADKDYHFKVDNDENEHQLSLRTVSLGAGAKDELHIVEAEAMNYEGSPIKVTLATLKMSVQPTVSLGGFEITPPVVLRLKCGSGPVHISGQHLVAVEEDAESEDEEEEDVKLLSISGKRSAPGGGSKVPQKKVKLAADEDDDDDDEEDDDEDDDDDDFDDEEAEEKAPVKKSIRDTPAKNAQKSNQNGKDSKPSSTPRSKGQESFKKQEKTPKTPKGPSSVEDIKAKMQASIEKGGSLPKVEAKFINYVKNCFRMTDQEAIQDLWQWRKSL
UniProt Q06609: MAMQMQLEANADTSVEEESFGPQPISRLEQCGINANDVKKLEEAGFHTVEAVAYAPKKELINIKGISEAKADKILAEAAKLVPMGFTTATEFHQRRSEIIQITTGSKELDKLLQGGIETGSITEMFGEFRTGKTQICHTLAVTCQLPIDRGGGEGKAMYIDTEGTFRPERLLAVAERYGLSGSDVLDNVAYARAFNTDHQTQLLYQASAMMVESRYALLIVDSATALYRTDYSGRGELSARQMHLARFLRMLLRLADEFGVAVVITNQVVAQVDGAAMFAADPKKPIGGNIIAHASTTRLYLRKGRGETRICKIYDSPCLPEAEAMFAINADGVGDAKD

T1: GST-PKMYT1 (UniProt Q99640)
T1 sequence: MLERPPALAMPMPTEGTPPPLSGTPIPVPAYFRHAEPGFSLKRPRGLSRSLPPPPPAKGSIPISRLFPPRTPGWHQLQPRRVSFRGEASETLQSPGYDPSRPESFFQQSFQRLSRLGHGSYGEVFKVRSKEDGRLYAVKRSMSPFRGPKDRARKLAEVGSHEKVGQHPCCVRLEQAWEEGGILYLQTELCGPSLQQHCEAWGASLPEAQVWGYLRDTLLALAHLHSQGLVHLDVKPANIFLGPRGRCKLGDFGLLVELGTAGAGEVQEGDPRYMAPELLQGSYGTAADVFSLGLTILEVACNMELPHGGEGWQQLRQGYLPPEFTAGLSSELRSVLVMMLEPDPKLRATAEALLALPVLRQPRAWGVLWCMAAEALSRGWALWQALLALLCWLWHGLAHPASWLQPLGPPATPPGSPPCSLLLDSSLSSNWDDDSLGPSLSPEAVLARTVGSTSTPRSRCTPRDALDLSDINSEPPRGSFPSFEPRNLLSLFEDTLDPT

B1: protein kinase membrane-associated tyrosine/threonine 1 (PKMYT1) (enzyme, UniProt Q99640 1-499)
chain: MLERPPALAMPMPTEGTPPPLSGTPIPVPAYFRHAEPGFSLKRPRGLSRSLPPPPPAKGSIPISRLFPPRTPGWHQLQPRRVSFRGEASETLQSPGYDPSRPESFFQQSFQRLSRLGHGSYGEVFKVRSKEDGRLYAVKRSMSPFRGPKDRARKLAEVGSHEKVGQHPCCVRLEQAWEEGGILYLQTELCGPSLQQHCEAWGASLPEAQVWGYLRDTLLALAHLHSQGLVHLDVKPANIFLGPRGRCKLGDFGLLVELGTAGAGEVQEGDPRYMAPELLQGSYGTAADVFSLGLTILEVACNMELPHGGEGWQQLRQGYLPPEFTAGLSSELRSVLVMMLEPDPKLRATAEALLALPVLRQPRAWGVLWCMAAEALSRGWALWQALLALLCWLWHGLAHPASWLQPLGPPATPPGSPPCSLLLDSSLSSNWDDDSLGPSLSPEAVLARTVGSTSTPRSRCTPRDALDLSDINSEPPRGSFPSFEPRNLLSLFEDTLDPT
B2: receptor-associated protein 80 (RAP80) (protein, UniProt Q96RL1 1-719)
chain: MPRRKKKVKEVSESRNLEKKDVETTSSVSVKRKRRLEDAFIVISDSDGEEPKEENGLQKTKTKQSNRAKCLAKRKIAQMTEEEQFALALKMSEQEAREVNSQEEEEEELLRKAIAESLNSCRPSDASATRSRPLATGPSSQSHQEKTTDSGLTEGIWQLVPPSLFKGSHISQGNEAEEREEPWDHTEKTEEEPVSGSSGSWDQSSQPVFENVNVKSFDRCTGHSAEHTQCGKPQESTGRGSAFLKAVQGSGDTSRHCLPTLADAKGLQDTGGTVNYFWGIPFCPDGVDPNQYTKVILCQLEVYQKSLKMAQRQLLNKKGFGEPVLPRPPSLIQNECGQGEQASEKNECISEDMGDEDKEERQESRASDWHSKTKDFQESSIKSLKEKLLLEEEPTTSHGQSSQGIVEETSEEGNSVPASQSVAALTSKRSLVLMPESSAEEITVCPETQLSSSETFDLEREVSPGSRDILDGVRIIMADKEVGNKEDAEKEVAISTFSSSNQVSCPLCDQCFPPTKIERHAMYCNGLMEEDTVLTRRQKEAKTKSDSGTAAQTSLDIDKNEKCYLCKSLVPFREYQCHVDSCLQLAKADQGDGPEGSGRACSTVEGKWQQRLKNPKEKGHSEGRLLSFLEQSEHKTSDADIKSSETGAFRVPSPGMEEAGCSREMQSSFTRRDLNESPVKSFVSISEATDCLVDFKKQVTVQPGSRTRTKAGRGRRRKF
B3: in vitro transcribed and translated PKMYT1 (enzyme, UniProt Q99640 1-499)
chain: MLERPPALAMPMPTEGTPPPLSGTPIPVPAYFRHAEPGFSLKRPRGLSRSLPPPPPAKGSIPISRLFPPRTPGWHQLQPRRVSFRGEASETLQSPGYDPSRPESFFQQSFQRLSRLGHGSYGEVFKVRSKEDGRLYAVKRSMSPFRGPKDRARKLAEVGSHEKVGQHPCCVRLEQAWEEGGILYLQTELCGPSLQQHCEAWGASLPEAQVWGYLRDTLLALAHLHSQGLVHLDVKPANIFLGPRGRCKLGDFGLLVELGTAGAGEVQEGDPRYMAPELLQGSYGTAADVFSLGLTILEVACNMELPHGGEGWQQLRQGYLPPEFTAGLSSELRSVLVMMLEPDPKLRATAEALLALPVLRQPRAWGVLWCMAAEALSRGWALWQALLALLCWLWHGLAHPASWLQPLGPPATPPGSPPCSLLLDSSLSSNWDDDSLGPSLSPEAVLARTVGSTSTPRSRCTPRDALDLSDINSEPPRGSFPSFEPRNLLSLFEDTLDPT

How the values were obtained:
GST-PKMYT1 [1] = molecular target: T1, GST-PKMYT1; experiment: pull-down; GST-PKMYT1 or GST-NPM1 on glutathione-sepharose beads incubated overnight at 4 °C with in vitro transcribed and translated NPM1 or PKMYT1; six washes with binding buffer; Western blot and Coomassie blue; only the target purified
GST-PKMYT1 [2] = molecular target: T1, GST-PKMYT1; experiment: pull-down; GST-NPM1 or GST-PKMYT1 on glutathione-sepharose beads incubated with cell lysates (RIPA buffer) at 4 °C for 24 h; Western blot; only the target purified
[3] = molecular target: nucleophosmin 1 (NPM1) (human (endogenous in HEK293T and the paper's other human cell lines)) (UniProt P06748); experiment: co-IP; HEK293T lysates; cells with siPKMYT1 (48 h), RP6306 (2 μM, 24 h) and/or cisplatin (1 μM, 24 h) before harvest; Western blot
[4] = molecular target: NPM1 S260A mutant (phosphodeficient) (UniProt P06748); experiment: co-IP; HEK293T transfected with NPM1 wild-type or S260A plasmids for 24 h, with or without cisplatin (1 μM); Western blot
[5] = molecular target: wild-type NPM1 (expressed from a plasmid) (UniProt P06748); experiment: as above
GST-NPM1 [6] = molecular target: GST-NPM1 (UniProt P06748); experiment: pull-down; GST-NPM1 or GST-PKMYT1 on glutathione-sepharose beads incubated with cell lysates (RIPA buffer) at 4 °C for 24 h; Western blot; only the target purified
[7] = molecular target: nucleophosmin 1 (NPM1) (human (endogenous in HEK293T and the paper's other human cell lines)) (UniProt P06748); experiment: co-IP; endogenous proteins; whole-cell lysates with anti-NPM1 and anti-PKMYT1 antibodies and Protein A/G agarose beads, overnight at 4 °C; lysis buffer 50 mM Tris-HCl pH 7.4, 150 mM NaCl, 50 mM NaF, 1 mM EDTA; Western blot
GST-NPM1 [8] = molecular target: GST-NPM1 (UniProt P06748); experiment: pull-down; GST-PKMYT1 or GST-NPM1 on glutathione-sepharose beads incubated overnight at 4 °C with in vitro transcribed and translated NPM1 or PKMYT1; six washes with binding buffer; Western blot and Coomassie blue; only the target purified

| Molecule | binding [3] | binding [4] | binding [5] | also measured |
| --- | --- | --- | --- | --- |
| in vitro transcribed and translated NPM1 (from UniProt P06748 1-294) | – | – | – | binding (GST-PKMYT1 [1]): binds |
| nucleophosmin 1 (NPM1) (from UniProt P06748 1-294) | – | – | – | binding (GST-PKMYT1 [2]): binds |
| RADiation sensitive protein 51 (RAD51) (from UniProt Q06609 1-339) | binds | binds | binds | – |
| B1 | – | – | – | binding (GST-NPM1 [6]): binds; binding [7]: binds |
| B2 | binds | binds | binds | – |
| B3 | – | – | – | binding (GST-NPM1 [8]): binds |
